Results from US20250075147A1, “FRAGRANCE AND FLAVOR COMPOSITIONS COMPRISING NEW FLAVOR AND FRAGRANCE INGREDIENTS” (priority 2023, published 2025).

Experiments:
[1] = tested on: odor evaluation panel; assay: Odor evaluation panel rating of odorants by Rate-All-That-Apply (RATA) method with 55-word odor lexicon, plus intensity and pleasantness; design: species or system human; settings: for Floral: mean panelist score for odor label floral (RATA); for Fruity: mean panelist score for odor label fruity (RATA); for Spicy: mean panelist score for odor label spicy (RATA); for Sweet: mean panelist score for odor label sweet (RATA); for Pleasantness: mean panelist score for odor pleasantness
[2] = Evaluation by trained and/or certified flavor or fragrance chemists or master perfumers; categorization by commercial prospect; settings: for Rating: category of commercial prospect, (A) highest > (B) > (C) > (D) lowest, (E) requires further study; for Rating (category of commercial prospect): evaluation by trained flavor or fragrance chemists or master perfumers

SMILES	Floral [1]	Fruity [1]	Spicy [1]	Sweet [1]	Pleasantness [1]	Rating [2]	Rating (category of commercial prospect) [2]
OC(c1ccccc1)C1CC1 (centres unmarked) [Compound 545, cyclopropyl(phenyl)methanol]	0.719	0.156	0.438	1.406	5.784	(D)	
COC(=O)c1c(C)csc1N [Compound 550, methyl 2-amino-4-methylthiophene-3-carboxylate]	0.086	0	0.257	0	2.509	(C)	
Nc1ccccc1-c1ccccc1 [Compound 551, 2-phenylaniline]	0.188	0.25	0.281	0.5	4.206	(D)	
CNCc1cccc2ccccc12 [Compound 554, N-methyl-1-naphthalen-1-ylmethanamine]	0.171	0	0.114	0.086	3.817	(D)	
O=C1CCN(Cc2ccccc2)C1 [Compound 558, 1-benzylpyrrolidin-3-one]	0.3	0.8	0.133	0.633	5.69	(B)	
CCCCCCCCCCCCSC [Compound 560, 1-methylsulfanyldodecane]	0	0	0.083	0		(B)	
CCN(O)CC [Compound 561, N,N-diethyl hydroxylamine]	0.219	0	0.125	0.156	2.978	(D)	
c1ccnnc1 [Compound 562, pyridazine]	0.281	0.438	0.125	0.531	5.175	(D)	
CC(C)CCN(CCC(C)C)CCC(C)C [Compound 563, 3-methyl-N,N-bis(3-methylbutyl)butan-1-amine]	0.438	1.062	0	1.031	4.159		(D)
C=CC(=O)NC(C)C [Compound 569, N-propan-2-ylprop-2-enamide]	0.139	0	0.139	0			(D)
COc1ccc(C(=O)C2CC2)cc1 [Compound 570, cyclopropyl-(4-methoxyphenyl)methanone]	0.219	0.125	0.062	1.062	5.612		(C)
CC1(C)Oc2ccccc2O1 [Compound 571, 2,2-dimethyl-1,3-benzodioxole]	0.429	0	0.686	0.114	4.506		(D)
Cc1cc(O)cc(C)c1C=O [Compound 575, 4-hydroxy-2,6-dimethylbenzaldehyde]	0.125	0.219	0.094	0.594	4.397		(D)
CC[C@@H](N)c1ccccc1 [Compound 578, (1R)-1-phenylpropan-1-amine]	0.286	0	0.114	0.229	3.051		(D)
C1=Cc2cccc3cccc1c23 [Compound 580, acenaphthylene]	0.061	0	0.182	0.182	3.906		(D)
COC(OC)c1ccncn1 [Compound 582, 4-(dimethoxymethyl)pyrimidine]	0.094	0	0.688	0.156	4.281		(A)
CC(C)=CCC/C(C)=C1\CC=C(C)CC1 [Compound 585, (4Z)-1-methyl-4-(6-methylhept-5-en-2-ylidene)cyclohexene]	0.226	0.645	0	1.129	4.977		(C)
Cc1ccc2[nH]c(C)cc2c1 [Compound 586, 2,5-dimethyl-1H-indole]	0.086	0	0.143	0.2	4.226		(D)
CC1CCCC(C)C1 (centres unmarked) [Compound 590, 1,3-dimethylcyclohexane]	0.394	0.818	0	1	6.109		(D)
COC1(OC)CCCCC1 [Compound 591, 1,1-dimethoxycyclohexane]	0.4	0.833	0	1.333	6.12		(D)
CON(C)C(C)=O [Compound 592, N-methoxy-N-methylacetamide]	0.235	0.235	0.029	0.794	5.726		(D)
CCOC(=O)COc1ccccc1OC [Compound 593, ethyl 2-(2-methoxyphenoxy)acetate]	0.406	0.656	0.469	1.75	5.947		(B)
O=C1CCCC(=O)C1 [Compound 594, cyclohexane-1,3-dione]	0	0	0	0.111			(D)
c1ccc(-n2cccc2)cc1 [Compound 595, 1-phenylpyrrole]	0.333	0.111	0.028	0.333			(D)
Cc1cc(=O)[nH]c(C)n1 [Compound 596, 2,4-dimethyl-1H-pyrimidin-6-one]	0.029	0	0.2	0.086	5.249		(B)
Cc1cc(C#N)c(N)s1 [Compound 598, 2-amino-5-methylthiophene-3-carbonitrile]	0.324	0.529	0.529	1.647	6.135		(D)
CC(C)=CC=C(C)C [Compound 600, 2,5-dimethylhexa-2,4-diene]	0.156	0.281	0.094	0.5	4.484		(D)
